Among the data in paper PMC5688095 are binding values, retold here.

No constants are given. Whether binding was seen depends on the method and setting. Binding seen in cells or lysates may run through a third protein. Some entries that bind do so weakly or less than the wild type.

The assay concerns the target T1, caspase-1 (Casp1) (mouse (endogenous in BMDM)), P29452.
T1 chain: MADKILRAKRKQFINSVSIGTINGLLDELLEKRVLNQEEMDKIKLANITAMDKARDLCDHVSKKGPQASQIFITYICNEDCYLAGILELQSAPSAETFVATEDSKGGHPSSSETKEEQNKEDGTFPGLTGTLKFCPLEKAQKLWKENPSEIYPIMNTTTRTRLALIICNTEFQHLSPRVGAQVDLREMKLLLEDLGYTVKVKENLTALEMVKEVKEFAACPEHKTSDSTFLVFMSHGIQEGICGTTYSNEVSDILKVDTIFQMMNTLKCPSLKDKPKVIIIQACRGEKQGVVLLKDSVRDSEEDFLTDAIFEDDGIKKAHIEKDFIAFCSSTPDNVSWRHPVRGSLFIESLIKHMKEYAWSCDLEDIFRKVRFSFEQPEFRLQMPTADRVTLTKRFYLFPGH
Description: proximity ligation; PLIC on acetone-fixed mouse BMDM (F4/80+CD11b+), primed with LPS (1 ug/ml, 2 h) and activated with ATP (5 or 10 mM), compared with non-activated cells; single monoclonal anti caspase-1 with PLA Mouse PLUS and Mouse MINUS probes. As to conditions: remark: other sources report otherwise.

B1: caspase-1 (Casp1), P29452 1-402 (enzyme)
chain: T1 chain
Regarding B1, the binding entry is “binds”.
